Results reported in article PMC4737156, “Taking a molecular motor for a spin: helicase mechanism studied by spin labeling and PELDOR”.

Assays:
[1] = biological target: PcrA E74C/Q506C-R1 (1A-2B) (Bacillus stearothermophilus) (UniProt P56255); assay: PELDOR (DEER) EPR; settings: DNA 150 uM, nucleotide 10-fold excess, 1 mM MgCl2, 5% EG-d6, XPD 40-50 uM, DNA about 2x, recombinant protein, folded or branched DNA
[2] = biological target: PcrA V344C/Q506C-R1 (2A-2B) (Bacillus stearothermophilus) (UniProt P56255); assay: PELDOR (DEER) EPR; settings: DNA 150 uM, nucleotide 10-fold excess, 1 mM MgCl2, 5% EG-d6, XPD 40-50 uM, DNA about 2x, recombinant protein, folded or branched DNA

Measured: binding result

CGAGCACTGCTTTAGCAGTGCTCGTTTTTTTTTT [hairpin with 3'-(dT)10 overhang]
binds: [1]; ADP, 1 mM MgCl2, 34 and 45 A (0.5:1) | [1]; AMP-PNP, 1 mM MgCl2, 33 and 46 A (0.4:1) | [2]; ADP, 1 mM MgCl2, 36.7 and 44.4 A (1:1) | [2]; AMP-PNP, 1 mM MgCl2, 36.7 and 44.1 A (1:1)

The exact form of at least one protein or probe is not confirmed. At least one verdict rests on a figure or table, not on a statement of the authors.
